Source: doi:10.1101/2021.02.07.430173
Read-outs that look alike come from different tables or passages of the source. Results are given in words; binding and its absence hold for the method and conditions named. Binding seen in cells or lysates may run through a third protein. Some results given as binding are weak or reduced against the parent protein; the word gives no strength. For part of these data: Tags and fused reporters may be left off the sequences shown.

Protein sequences, listed by entry. Tags and fused reporters are not part of them.
UniProt A2BH40: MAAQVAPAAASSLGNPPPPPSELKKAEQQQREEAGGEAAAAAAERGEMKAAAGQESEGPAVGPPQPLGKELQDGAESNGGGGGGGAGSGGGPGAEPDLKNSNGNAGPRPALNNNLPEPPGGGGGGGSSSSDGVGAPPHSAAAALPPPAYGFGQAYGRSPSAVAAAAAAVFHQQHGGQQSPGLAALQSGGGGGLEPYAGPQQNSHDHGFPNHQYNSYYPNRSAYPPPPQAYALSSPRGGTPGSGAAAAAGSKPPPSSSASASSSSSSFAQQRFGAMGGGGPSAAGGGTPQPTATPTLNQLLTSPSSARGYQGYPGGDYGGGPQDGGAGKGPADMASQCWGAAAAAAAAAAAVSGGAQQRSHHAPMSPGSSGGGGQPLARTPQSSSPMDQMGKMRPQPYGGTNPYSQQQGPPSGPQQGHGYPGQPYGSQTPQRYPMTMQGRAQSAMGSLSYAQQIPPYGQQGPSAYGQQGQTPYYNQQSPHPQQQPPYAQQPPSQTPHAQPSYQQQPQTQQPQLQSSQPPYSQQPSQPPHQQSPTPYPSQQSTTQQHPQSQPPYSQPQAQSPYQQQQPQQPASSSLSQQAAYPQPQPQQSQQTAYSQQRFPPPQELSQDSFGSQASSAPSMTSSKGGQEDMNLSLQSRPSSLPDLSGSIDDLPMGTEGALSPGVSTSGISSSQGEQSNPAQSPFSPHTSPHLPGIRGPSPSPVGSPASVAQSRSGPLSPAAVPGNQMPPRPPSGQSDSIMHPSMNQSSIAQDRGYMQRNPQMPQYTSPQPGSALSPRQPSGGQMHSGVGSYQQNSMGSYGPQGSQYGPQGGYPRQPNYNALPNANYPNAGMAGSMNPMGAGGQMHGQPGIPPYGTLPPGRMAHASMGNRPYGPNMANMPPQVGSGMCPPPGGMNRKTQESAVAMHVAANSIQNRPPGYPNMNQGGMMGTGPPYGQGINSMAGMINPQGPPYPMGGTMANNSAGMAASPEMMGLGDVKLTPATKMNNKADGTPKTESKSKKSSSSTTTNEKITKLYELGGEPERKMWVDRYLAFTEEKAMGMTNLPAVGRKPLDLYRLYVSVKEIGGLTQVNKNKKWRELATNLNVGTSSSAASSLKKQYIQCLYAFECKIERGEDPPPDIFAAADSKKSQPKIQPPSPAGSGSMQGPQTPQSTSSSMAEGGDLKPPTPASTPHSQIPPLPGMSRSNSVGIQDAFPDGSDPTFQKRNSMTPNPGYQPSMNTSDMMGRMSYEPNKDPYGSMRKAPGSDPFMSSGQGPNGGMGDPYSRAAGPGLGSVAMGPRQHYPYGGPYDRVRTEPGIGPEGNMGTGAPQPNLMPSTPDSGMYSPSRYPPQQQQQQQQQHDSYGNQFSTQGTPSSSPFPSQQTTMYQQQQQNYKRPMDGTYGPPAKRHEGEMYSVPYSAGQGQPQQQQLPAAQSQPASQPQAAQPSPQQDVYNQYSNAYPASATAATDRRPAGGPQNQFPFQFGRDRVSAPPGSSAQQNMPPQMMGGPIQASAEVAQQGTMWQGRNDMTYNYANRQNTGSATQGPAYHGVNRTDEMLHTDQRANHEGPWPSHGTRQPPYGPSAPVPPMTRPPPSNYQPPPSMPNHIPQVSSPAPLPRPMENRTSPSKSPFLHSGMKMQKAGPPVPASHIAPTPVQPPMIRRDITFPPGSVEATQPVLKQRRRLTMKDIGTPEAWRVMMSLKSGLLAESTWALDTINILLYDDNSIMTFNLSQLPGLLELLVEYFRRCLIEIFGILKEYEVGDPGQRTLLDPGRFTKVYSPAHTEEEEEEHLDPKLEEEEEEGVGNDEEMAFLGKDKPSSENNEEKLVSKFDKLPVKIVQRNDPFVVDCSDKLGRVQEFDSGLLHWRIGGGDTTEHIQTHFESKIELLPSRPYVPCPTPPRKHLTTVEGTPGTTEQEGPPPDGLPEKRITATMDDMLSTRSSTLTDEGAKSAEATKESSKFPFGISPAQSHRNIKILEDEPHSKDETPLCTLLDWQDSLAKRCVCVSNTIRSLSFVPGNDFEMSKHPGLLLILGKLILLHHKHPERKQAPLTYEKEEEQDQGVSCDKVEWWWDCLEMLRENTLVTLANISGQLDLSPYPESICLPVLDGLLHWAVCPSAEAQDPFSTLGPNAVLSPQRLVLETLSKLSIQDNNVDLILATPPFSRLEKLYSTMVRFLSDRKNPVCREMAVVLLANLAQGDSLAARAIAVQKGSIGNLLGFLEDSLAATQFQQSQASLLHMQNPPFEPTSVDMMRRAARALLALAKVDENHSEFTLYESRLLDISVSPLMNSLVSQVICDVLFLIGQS
UniProt Q3TKT4: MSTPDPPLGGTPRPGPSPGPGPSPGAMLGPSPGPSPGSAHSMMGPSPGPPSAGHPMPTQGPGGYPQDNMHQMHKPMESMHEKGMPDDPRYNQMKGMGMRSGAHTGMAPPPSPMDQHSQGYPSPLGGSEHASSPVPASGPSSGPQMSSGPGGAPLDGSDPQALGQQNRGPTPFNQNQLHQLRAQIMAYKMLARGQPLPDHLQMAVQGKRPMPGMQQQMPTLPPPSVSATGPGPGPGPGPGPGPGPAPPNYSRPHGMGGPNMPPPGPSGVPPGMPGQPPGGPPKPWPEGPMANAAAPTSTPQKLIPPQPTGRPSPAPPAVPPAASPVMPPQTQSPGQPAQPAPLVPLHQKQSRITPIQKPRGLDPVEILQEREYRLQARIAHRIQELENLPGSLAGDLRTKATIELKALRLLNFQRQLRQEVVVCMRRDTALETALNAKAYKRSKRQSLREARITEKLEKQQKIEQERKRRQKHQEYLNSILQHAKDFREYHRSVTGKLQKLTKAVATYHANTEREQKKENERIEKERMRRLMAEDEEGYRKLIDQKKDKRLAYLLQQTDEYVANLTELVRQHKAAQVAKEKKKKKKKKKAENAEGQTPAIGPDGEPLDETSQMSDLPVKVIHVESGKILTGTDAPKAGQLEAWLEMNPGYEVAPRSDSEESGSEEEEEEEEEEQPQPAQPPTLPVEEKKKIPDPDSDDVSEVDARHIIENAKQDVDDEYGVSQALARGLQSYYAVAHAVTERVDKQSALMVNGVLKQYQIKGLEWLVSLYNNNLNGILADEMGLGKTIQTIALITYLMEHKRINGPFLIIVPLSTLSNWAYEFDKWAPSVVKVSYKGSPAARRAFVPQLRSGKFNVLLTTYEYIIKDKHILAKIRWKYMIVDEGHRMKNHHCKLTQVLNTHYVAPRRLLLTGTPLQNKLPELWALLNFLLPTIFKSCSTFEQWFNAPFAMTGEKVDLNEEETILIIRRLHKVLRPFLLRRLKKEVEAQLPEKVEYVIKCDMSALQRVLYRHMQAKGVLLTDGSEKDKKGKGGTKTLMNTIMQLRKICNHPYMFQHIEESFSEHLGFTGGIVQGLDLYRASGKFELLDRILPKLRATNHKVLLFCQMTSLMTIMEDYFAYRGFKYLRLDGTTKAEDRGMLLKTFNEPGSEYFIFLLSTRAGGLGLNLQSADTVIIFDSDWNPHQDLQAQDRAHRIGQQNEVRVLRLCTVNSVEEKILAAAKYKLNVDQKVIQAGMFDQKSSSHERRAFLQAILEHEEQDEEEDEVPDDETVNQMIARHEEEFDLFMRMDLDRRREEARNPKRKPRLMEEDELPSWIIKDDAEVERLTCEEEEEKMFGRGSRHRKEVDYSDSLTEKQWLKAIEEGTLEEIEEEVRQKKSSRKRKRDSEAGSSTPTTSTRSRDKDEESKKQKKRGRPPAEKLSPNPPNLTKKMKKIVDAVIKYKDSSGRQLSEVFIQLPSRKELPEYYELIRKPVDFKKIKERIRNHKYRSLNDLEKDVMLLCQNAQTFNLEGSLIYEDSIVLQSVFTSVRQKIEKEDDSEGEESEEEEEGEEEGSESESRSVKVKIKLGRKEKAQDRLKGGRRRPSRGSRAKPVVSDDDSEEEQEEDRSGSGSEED
UniProt P97496: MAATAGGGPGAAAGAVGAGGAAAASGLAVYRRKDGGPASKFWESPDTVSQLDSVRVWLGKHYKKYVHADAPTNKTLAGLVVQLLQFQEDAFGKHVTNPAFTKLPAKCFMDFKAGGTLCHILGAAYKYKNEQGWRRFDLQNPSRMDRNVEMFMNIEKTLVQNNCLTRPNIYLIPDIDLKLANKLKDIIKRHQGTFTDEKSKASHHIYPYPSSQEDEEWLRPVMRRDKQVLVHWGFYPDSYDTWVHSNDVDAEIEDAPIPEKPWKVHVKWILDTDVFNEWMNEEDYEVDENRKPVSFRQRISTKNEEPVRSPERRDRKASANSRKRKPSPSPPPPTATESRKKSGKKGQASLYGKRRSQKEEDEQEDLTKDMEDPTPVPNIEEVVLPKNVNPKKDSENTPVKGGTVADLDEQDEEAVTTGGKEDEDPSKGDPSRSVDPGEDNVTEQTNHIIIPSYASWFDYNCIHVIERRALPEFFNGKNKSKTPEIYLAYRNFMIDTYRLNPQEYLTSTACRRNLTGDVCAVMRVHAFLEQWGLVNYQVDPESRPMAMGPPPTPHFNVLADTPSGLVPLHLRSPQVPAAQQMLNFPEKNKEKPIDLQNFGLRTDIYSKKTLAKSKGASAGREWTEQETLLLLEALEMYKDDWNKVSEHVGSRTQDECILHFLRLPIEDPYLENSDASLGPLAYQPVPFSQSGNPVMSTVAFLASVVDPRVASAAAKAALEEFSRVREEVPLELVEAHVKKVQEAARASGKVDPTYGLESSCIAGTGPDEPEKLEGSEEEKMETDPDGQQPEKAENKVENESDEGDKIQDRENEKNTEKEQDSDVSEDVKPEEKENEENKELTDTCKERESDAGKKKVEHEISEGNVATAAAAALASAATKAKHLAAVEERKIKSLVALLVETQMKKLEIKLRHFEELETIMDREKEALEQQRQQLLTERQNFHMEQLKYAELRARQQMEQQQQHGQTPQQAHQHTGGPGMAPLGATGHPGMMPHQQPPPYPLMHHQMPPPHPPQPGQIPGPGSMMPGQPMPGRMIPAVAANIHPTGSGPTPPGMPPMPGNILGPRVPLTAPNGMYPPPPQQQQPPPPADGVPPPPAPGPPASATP

Assays:
Assay in all cases: co-IP
3×Flag-POGZ (mouse) [1] = molecular target: T1, 3×Flag-POGZ (mouse) (UniProt Q8BZH4)
T1 sequence: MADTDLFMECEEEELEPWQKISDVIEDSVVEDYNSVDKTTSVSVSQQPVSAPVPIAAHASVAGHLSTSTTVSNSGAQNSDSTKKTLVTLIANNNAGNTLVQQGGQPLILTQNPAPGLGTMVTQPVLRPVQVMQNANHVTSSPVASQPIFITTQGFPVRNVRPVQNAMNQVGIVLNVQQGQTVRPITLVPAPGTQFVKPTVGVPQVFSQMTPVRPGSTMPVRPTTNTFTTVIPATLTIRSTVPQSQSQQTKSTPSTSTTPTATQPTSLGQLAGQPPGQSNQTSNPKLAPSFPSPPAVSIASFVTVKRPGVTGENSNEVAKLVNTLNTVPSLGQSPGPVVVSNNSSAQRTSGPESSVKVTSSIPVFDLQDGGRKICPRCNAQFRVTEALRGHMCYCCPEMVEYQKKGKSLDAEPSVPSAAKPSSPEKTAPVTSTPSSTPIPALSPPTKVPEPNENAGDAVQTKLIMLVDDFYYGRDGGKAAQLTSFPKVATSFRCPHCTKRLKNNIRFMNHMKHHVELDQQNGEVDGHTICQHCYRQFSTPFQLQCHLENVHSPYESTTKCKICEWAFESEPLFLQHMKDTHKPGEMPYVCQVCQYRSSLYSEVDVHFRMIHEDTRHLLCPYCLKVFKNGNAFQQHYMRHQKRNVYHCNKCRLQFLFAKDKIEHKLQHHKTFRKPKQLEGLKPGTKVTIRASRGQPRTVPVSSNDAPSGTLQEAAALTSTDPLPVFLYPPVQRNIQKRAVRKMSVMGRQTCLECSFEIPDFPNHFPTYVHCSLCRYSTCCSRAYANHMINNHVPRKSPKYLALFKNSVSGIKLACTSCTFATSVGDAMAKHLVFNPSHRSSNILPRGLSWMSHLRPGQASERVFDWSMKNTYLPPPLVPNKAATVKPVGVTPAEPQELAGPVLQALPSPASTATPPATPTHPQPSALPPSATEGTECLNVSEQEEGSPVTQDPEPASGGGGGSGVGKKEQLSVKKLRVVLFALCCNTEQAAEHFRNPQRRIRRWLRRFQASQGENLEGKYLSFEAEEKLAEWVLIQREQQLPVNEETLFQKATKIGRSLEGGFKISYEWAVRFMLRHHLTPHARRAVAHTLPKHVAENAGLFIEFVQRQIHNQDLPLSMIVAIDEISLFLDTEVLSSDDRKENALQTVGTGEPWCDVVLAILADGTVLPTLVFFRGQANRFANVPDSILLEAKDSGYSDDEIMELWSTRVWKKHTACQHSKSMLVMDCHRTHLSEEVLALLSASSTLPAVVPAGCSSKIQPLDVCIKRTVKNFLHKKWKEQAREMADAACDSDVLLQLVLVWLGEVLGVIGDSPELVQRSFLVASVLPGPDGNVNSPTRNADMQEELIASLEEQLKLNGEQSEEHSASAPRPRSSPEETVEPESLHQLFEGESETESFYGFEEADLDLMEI

3×Flag-POGZ (mouse) [2] = molecular target: T1, 3×Flag-POGZ (mouse); remark: listed apart in the source
[3] = molecular target: T2, POGZ (endogenous, mouse ESCs) (mouse (endogenous in mouse ESCs)) (UniProt Q8BZH4)
T2 sequence: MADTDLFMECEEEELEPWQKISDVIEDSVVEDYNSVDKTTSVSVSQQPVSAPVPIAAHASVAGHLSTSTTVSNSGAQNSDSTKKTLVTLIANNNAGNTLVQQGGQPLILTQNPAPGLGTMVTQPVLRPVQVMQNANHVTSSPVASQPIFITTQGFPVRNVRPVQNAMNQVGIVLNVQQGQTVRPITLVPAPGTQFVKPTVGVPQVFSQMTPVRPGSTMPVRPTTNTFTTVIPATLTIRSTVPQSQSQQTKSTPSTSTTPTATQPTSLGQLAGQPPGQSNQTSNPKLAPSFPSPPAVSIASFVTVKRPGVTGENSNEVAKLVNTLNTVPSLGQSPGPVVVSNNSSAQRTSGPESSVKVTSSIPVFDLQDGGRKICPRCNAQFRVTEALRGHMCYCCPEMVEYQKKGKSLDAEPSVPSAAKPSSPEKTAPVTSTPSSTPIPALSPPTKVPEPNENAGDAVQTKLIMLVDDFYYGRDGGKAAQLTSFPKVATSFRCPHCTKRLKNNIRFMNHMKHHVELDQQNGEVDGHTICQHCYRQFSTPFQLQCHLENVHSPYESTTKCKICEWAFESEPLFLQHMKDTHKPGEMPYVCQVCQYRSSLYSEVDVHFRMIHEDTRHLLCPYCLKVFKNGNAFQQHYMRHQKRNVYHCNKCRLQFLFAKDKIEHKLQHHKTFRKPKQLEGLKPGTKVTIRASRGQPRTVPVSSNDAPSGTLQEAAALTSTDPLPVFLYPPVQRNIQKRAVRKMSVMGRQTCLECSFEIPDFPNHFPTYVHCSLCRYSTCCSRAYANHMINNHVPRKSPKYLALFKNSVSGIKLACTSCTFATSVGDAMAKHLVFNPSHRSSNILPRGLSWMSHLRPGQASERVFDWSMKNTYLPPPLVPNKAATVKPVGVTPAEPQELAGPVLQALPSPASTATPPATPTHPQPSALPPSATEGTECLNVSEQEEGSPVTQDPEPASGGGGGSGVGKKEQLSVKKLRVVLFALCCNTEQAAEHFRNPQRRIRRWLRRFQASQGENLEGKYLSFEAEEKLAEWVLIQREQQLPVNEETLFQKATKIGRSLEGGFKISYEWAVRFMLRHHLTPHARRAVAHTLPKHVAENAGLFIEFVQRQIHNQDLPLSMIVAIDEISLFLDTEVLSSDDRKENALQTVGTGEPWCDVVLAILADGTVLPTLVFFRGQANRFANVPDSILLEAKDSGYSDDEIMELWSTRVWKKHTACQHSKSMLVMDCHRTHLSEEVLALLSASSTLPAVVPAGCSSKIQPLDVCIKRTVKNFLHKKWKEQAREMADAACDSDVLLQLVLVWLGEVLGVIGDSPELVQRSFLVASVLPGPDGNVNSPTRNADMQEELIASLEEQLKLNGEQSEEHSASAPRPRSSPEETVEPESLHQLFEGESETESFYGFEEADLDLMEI

[4] = molecular target: T3, POGZ (over-expressed in HEK293T cells) (UniProt Q8BZH4)
T3 sequence: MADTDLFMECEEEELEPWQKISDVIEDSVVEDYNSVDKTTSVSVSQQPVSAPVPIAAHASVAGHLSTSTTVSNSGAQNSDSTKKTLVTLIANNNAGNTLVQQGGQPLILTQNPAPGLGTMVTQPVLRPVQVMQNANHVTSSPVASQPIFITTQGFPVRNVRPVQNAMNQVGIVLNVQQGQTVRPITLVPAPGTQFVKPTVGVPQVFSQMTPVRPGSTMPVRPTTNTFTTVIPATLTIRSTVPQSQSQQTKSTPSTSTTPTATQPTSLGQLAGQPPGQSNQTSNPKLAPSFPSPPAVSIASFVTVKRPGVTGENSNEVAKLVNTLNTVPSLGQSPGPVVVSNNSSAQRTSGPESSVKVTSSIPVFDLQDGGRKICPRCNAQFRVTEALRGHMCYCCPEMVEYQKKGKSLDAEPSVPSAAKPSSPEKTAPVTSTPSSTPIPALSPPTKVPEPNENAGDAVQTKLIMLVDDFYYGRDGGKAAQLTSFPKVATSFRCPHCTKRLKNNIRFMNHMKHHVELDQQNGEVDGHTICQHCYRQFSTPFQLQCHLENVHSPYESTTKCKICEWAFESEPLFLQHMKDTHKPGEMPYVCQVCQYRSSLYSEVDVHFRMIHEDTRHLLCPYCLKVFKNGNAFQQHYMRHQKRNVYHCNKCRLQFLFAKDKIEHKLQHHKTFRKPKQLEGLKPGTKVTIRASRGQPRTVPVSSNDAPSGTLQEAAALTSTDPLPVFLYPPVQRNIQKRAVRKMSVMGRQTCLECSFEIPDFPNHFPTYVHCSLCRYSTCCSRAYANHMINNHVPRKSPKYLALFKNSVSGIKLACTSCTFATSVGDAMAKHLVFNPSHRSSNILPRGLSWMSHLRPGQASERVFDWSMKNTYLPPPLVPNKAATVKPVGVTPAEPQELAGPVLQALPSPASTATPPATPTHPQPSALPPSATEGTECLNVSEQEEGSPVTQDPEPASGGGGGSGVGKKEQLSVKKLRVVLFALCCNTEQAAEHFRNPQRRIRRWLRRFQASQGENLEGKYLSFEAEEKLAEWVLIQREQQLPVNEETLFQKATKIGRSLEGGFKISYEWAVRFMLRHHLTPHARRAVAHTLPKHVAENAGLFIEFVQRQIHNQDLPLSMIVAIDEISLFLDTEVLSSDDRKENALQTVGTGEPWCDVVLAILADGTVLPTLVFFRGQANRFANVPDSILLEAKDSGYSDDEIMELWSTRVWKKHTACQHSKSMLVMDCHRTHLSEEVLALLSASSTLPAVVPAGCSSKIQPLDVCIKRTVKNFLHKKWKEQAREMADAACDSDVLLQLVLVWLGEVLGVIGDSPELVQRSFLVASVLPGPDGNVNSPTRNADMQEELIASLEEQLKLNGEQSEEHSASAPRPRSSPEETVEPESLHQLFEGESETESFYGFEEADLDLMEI

[5] = molecular target: T4, POGZ (in vitro synthesized, TnT) (UniProt Q8BZH4)
T4 sequence: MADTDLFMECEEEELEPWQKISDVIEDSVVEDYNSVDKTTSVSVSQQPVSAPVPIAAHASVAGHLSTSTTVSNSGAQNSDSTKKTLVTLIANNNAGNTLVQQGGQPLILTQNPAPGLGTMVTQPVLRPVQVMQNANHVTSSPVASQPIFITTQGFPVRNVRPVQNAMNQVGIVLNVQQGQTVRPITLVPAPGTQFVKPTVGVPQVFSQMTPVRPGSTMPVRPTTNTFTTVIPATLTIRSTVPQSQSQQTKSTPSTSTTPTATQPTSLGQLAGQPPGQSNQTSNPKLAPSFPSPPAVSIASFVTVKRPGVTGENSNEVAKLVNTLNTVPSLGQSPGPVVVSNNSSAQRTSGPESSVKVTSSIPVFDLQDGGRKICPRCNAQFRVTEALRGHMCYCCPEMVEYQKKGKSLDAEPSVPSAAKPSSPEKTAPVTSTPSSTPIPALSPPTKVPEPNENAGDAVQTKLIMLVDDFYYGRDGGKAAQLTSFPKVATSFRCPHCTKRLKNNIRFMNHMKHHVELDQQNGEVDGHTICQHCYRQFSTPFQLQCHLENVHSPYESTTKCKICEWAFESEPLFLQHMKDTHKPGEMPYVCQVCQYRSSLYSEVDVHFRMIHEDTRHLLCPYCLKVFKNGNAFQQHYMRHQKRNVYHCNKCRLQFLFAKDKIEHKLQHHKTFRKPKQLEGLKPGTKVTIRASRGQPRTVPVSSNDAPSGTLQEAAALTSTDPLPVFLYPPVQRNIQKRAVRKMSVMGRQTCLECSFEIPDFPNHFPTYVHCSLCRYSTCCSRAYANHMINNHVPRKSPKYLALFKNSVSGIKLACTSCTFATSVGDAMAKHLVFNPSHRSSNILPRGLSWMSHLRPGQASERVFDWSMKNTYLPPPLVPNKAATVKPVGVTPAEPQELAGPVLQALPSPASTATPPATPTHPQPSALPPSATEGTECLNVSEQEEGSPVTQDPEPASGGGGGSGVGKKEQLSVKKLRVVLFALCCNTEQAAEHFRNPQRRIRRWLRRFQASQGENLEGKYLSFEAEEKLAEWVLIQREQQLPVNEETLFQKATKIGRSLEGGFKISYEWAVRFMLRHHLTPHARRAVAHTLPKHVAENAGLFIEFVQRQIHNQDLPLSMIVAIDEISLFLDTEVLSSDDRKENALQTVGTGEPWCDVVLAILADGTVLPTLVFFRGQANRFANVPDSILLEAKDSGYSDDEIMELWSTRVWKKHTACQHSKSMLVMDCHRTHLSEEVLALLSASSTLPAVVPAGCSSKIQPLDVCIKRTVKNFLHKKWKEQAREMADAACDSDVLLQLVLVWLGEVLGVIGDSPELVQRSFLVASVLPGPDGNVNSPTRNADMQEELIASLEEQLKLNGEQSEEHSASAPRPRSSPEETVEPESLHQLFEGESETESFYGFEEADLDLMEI

ARID1A/BAF250a (endogenous, mouse ESCs) (from UniProt A2BH40 1-2283)
binding (3×Flag-POGZ (mouse) [1]): binds weakly

BRG1 (endogenous, mouse ESCs) (from UniProt Q3TKT4 1-1613)
binding (3×Flag-POGZ (mouse) [2]): binds | binding (3×Flag-POGZ (mouse) [1]): binds | binding [3]: binds

FLAG-BAF155 (HEK293T) (from UniProt P97496 1-1104)
binding [4]: binds

FLAG-BAF155 (in vitro synthesized, TnT) (from UniProt P97496 1-1104)
binding [5]: binds
